Measurements reported in PubChem BioAssay AID1259331 (Drosophila RNAi Screening Center, 2017)
Shown is one part, drawn at random, of about 3,100 deposited reagents. 126 of all reagents (4.1%) were called active. 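Calls are per reagent; zinc was so toxic that few knock-downs lowered ATP further, so most hits raise ATP.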 Raw values are not corrected between plates. Reagent sequences are not shown. Not stated in the record: the amount of reagent.

- Purpose: 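Genes whose knock-down changes cell survival under toxic zinc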 (primary screen)
- System: Drosophila S2R+ cells
- Reagent: long dsRNA against Drosophila genes
- Duration: 5 days (4 days knock-down, then 1 day zinc)
- Treatment: zinc chloride at 15 mM final level for 1 day
- Read-out: 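Total cellular ATP measured by luciferase luminescence as a viability proxy, turned into Z scores from three plate copies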
- Direction: mean Z score: higher = more ATP than other wells, better survival under zinc; ATP luminescence: higher = more ATP, more viable cells
- Call rule: 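Hit when the absolute Z score is greater than 1.5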
- Calls: active = hit, ATP up or down; inactive = not a hit

Depletion of CG17167 [DRSC20902] gave: mean Z score 0.0617; ATP luminescence, replicate 1 = 41531; ATP luminescence, replicate 2 = 47137; inactive.
CG17167 [DRSC20903] scored mean Z score 0.386; ATP luminescence, replicate 1 = 47700; ATP luminescence, replicate 2 = 45234; inactive.
Knock-down of boi [DRSC18425] came out at: mean Z score -0.411; ATP luminescence, replicate 1 = 59654; ATP luminescence, replicate 2 = 58802; inactive.
Silencing of boi [DRSC25851] came out at: mean Z score 0.338; ATP luminescence, replicate 1 = 57134; ATP luminescence, replicate 2 = 62381; inactive.
Knock-down of ppk28 (pickpocket 28) [DRSC19919] resulted in: mean Z score -0.143; ATP luminescence, replicate 1 = 47514; ATP luminescence, replicate 2 = 33970; inactive.
ppk28 (pickpocket 28) [DRSC39604] showed mean Z score -0.167; ATP luminescence, replicate 1 = 57940; ATP luminescence, replicate 2 = 56276; inactive.
Eglp3 (Entomoglyceroporin 3) [DRSC04293] showed mean Z score -0.272; ATP luminescence, replicate 1 = 50601; ATP luminescence, replicate 2 = 39422; inactive.
Depletion of Eglp3 (Entomoglyceroporin 3) [DRSC25630] came out at: mean Z score -0.204; ATP luminescence, replicate 1 = 58179; ATP luminescence, replicate 2 = 58334; inactive.
With knock-down of promL (prominin-like) [DRSC08733], the record shows mean Z score -0.136; ATP luminescence, replicate 1 = 31862; ATP luminescence, replicate 2 = 28142; inactive.
Against mgl (Megalin) [DRSC17823] the deposit lists mean Z score -0.468; ATP luminescence, replicate 1 = 39302; ATP luminescence, replicate 2 = 38856; inactive.
Depletion of mgl (Megalin) [DRSC17859] resulted in: mean Z score -0.442; ATP luminescence, replicate 1 = 55162; ATP luminescence, replicate 2 = 62347; inactive.
Against CG5250 [DRSC15752], the values are mean Z score -0.271; ATP luminescence, replicate 1 = 35719; ATP luminescence, replicate 2 = 54013; inactive.
CG5250 [DRSC39851] showed mean Z score -0.0415; ATP luminescence, replicate 1 = 53738; ATP luminescence, replicate 2 = 57648; inactive.

As entered above:
CG5250 [DRSC15752], ATP luminescence, replicate 1 → 35719
CG17167 [DRSC20902], ATP luminescence, replicate 2 = 47137
For “ATP luminescence, replicate 1”, Eglp3 (Entomoglyceroporin 3) [DRSC04293] reads 50601

Next records follow:
Silencing of CG32983 [DRSC22367] came out at: mean Z score -0.289; ATP luminescence, replicate 1 = 48200; ATP luminescence, replicate 2 = 56345; inactive.
For Nup358 (Nucleoporin 358kD) [DRSC29772], the values are mean Z score 3.73; ATP luminescence, replicate 1 = 1.25e5; ATP luminescence, replicate 2 = 1.13e5; active.
Depletion of Gr47a (Gustatory receptor 47a) [DRSC06221] came out at: mean Z score -0.108; ATP luminescence, replicate 1 = 90631; ATP luminescence, replicate 2 = 68812; inactive.
Against Gr47a (Gustatory receptor 47a) [DRSC39508], the entry reads mean Z score -0.287; ATP luminescence, replicate 1 = 49589; ATP luminescence, replicate 2 = 43794; inactive.
For Glut3 (Glucose transporter type 3) [DRSC16681] the deposit lists mean Z score -0.64; ATP luminescence, replicate 1 = 35370; ATP luminescence, replicate 2 = 50618; inactive.
Against Glut3 (Glucose transporter type 3) [DRSC26249], the entry reads mean Z score 0.318; ATP luminescence, replicate 1 = 61678; ATP luminescence, replicate 2 = 70716; inactive.
CG12490 [DRSC04123] showed mean Z score 0.413; ATP luminescence, replicate 1 = 56225; ATP luminescence, replicate 2 = 42474; inactive.
CG5281 [DRSC15761] gave mean Z score 0.203; ATP luminescence, replicate 1 = 35787; ATP luminescence, replicate 2 = 63599; inactive.
Depletion of CG5281 [DRSC39880] came out at: mean Z score 0.258; ATP luminescence, replicate 1 = 56894; ATP luminescence, replicate 2 = 72620; inactive.
Against bark (bark beetle) [DRSC00635] the deposit lists mean Z score -0.13; ATP luminescence, replicate 1 = 50703; ATP luminescence, replicate 2 = 43942; inactive.
Against bark (bark beetle) [DRSC27011] the deposit lists mean Z score 0.0622; ATP luminescence, replicate 1 = 54750; ATP luminescence, replicate 2 = 65645; inactive.
Depletion of CG1724 [DRSC20548] resulted in: mean Z score -0.0711; ATP luminescence, replicate 1 = 43571; ATP luminescence, replicate 2 = 42405; inactive.
After knock-down of CG1724 [DRSC25668], the screen gave mean Z score -0.0227; ATP luminescence, replicate 1 = 52272; ATP luminescence, replicate 2 = 69975; inactive.
After knock-down of cdm (cadmus) [DRSC16213] the results were mean Z score -0.297; ATP luminescence, replicate 1 = 42366; ATP luminescence, replicate 2 = 43468; inactive.
For Pex23 (Peroxin 23) [DRSC10323] the deposit lists mean Z score -0.356; ATP luminescence, replicate 1 = 27405; ATP luminescence, replicate 2 = 28279; inactive.
With knock-down of Pex23 (Peroxin 23) [DRSC10645], the record shows mean Z score 0.328; ATP luminescence, replicate 1 = 81590; ATP luminescence, replicate 2 = 67903; inactive.
After knock-down of Pex23 (Peroxin 23) [DRSC28370], the screen gave mean Z score 0.1; ATP luminescence, replicate 1 = 75741; ATP luminescence, replicate 2 = 49898; inactive.
